Construct, isoform or probe ends are uncertain for at least one entry. For some assays here: Where cells or extracts were used, other partners may take part. For some assays here: Tags and fusion partners may be left off the protein sequences shown.
How the values were obtained:
[1] = target: T1, rIRP1 (recombinant iron regulatory protein 1) (UniProt P21399); test: EMSA; settings: CITED Cho et al. 2010; Scatchard analysis; exact probe of cited work not given; purified recombinant protein; label: 5'-biotin
T1 sequence (looked up, limits assumed): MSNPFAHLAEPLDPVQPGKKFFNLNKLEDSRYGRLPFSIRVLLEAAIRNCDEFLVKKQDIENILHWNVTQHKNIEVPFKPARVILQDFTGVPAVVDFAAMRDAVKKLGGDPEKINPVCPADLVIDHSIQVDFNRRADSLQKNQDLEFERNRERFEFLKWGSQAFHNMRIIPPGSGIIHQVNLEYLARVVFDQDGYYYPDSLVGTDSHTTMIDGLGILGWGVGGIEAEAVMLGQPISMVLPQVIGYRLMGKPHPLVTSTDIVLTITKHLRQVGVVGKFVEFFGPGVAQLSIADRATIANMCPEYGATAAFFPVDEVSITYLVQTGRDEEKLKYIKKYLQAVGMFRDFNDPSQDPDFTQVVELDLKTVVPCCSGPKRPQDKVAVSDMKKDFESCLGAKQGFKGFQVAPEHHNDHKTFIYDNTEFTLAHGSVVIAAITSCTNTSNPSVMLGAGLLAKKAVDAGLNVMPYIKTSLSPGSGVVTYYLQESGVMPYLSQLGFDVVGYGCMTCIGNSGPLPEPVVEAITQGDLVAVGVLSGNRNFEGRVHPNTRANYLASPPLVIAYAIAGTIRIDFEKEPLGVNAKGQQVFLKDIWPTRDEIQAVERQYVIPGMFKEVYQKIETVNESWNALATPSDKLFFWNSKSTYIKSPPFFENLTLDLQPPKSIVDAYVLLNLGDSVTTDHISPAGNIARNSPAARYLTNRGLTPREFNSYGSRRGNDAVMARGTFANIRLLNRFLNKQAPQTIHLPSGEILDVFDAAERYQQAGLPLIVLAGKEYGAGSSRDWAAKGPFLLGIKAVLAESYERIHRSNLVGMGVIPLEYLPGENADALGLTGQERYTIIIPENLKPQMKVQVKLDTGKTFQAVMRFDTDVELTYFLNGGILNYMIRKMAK

[2] = target: IRP1 (iron regulatory protein 1, ACO1) (Homo sapiens) (UniProt P21399); test: pull-down; settings: 100 nM RNA, 100 ug lysate, protein in an extract, protein details: endogenous, SH-SY5Y cytoplasmic lysate, label: 5'-biotin
[3] = target: T2, IRP2 (iron regulatory protein 2, IREB2) (Homo sapiens) (UniProt P48200); test: pull-down; settings: 100 nM RNA, 100 ug lysate, room temperature; binding maintained with JTR-009; protein in an extract; protein details: endogenous, SH-SY5Y cytoplasmic lysate; label: 5'-biotin
T2 sequence (looked up, limits assumed): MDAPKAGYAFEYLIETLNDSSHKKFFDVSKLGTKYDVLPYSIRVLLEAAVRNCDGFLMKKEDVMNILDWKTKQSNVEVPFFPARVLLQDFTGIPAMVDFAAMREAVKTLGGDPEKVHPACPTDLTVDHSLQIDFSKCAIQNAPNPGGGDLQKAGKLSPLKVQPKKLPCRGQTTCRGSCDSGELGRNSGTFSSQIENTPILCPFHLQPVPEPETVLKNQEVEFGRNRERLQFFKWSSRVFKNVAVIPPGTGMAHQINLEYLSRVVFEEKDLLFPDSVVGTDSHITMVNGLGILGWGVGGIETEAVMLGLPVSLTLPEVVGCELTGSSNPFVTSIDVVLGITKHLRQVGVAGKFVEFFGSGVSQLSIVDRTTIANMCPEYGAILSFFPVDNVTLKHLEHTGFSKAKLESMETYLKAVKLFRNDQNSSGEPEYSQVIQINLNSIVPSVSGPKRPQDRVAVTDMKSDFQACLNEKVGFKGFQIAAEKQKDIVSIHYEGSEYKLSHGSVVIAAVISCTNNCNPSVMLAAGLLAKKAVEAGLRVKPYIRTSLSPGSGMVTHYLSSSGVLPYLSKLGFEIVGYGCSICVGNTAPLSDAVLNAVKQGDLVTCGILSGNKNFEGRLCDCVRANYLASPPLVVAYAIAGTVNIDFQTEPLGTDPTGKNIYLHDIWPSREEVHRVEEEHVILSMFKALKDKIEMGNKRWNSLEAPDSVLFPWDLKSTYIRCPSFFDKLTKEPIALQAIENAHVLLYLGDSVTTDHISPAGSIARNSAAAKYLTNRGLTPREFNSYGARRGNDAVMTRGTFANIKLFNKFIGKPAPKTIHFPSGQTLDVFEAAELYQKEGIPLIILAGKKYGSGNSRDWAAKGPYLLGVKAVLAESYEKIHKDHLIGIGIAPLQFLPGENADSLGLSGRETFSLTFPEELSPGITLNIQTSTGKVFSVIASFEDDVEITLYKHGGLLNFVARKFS

Row | Sequence | Kd [1] [nM] | binding result ([2]; 3 h room temperature, binding reduced 20% at 0.3 uM, 50% at 3 uM, fully at 30 uM JTR-009) | binding result ([2]; room temperature, binding maintained with JTR-009) | binding result [3]
1 | GCGGUGGCGGCGCGGGCAGAGCAAGGACGCGGCGGAU [APP IRE] | 0.03 | binds |  | 
2 | GGGUUUCCUGCUUCAACAGUGCUUGGACGGAACCCGG [H-ferritin IRE] | 0.04 |  | binds | binds

— patent US20160074367
